Some of the results follow.

The test addresses T1, OsSMF1 (Oryza sativa, UniProt Q6ZLB0 1-436).
T1 sequence: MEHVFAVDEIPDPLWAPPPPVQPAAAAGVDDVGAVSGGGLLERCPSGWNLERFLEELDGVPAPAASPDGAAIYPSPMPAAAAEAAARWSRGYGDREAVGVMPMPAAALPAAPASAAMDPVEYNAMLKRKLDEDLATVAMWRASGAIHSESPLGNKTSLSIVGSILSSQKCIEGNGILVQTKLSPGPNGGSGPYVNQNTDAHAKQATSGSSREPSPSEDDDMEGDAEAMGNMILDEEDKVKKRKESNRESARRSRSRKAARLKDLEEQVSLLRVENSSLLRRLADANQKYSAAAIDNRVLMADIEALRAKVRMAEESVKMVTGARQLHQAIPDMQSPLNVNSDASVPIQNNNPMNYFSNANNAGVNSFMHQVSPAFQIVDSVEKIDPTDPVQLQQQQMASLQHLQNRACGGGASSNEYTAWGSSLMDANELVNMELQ
The experiment in a line: protein-binding microarray (RPBM); PBS, 2% BSA, 51.3 ng/ul salmon testes DNA, 50 uM zinc acetate, 200 nM TF, 25 C, 1 h; high values mean tight binding. As to conditions: protein: recombinant; tags: N-terminal polyhistidine and DsRed monomer fusion (pET32a); chain copies: 2; label: CyDye5-dUTP incorporated in the synthesized complementary strand; 3' TTTTT single-stranded linker to array surface; dsDNA, one strand shown. Put shortly: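 Transcription factors were made in E. coli BL21-CodonPlus as N-terminal fusions to a polyhistidine tag and DsRed, then purified on Ni–NTA. After primer extension with Cy5-dUTP and blocking with 2% BSA, a custom Agilent array was exposed for 1 h at 25 °C to 200 nM protein in PBS, 2% BSA, salmon testes DNA and 50 µM zinc acetate. Washed arrays were scanned on an Axon 4000B, and the binding signal is per-feature fluorescence intensity in arbitrary units.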
With “GCATCCCTATCGCAGAAGTCAAACCGGGCGGGGCCCATTCCGGAGTCACCTAGTGCAG”, the binding signal was 29000 fluorescence intensity (a.u.). As for “GGGGTCGATGTGCCCCAAGCATAGCCATTAGGGGCTGCACCGGAGTCACCTAGTGCAG”, the figure is 3150 fluorescence intensity (a.u.). Regarding “CACTCTGCAGCTCTGCTCGTTTTGCACACGGGTGACTCGTCGGAGTCACCTAGTGCAG”, the binding signal is 3280 fluorescence intensity (a.u.). With “ATATAAAATTATAACCATATAAAACTAAATTGAAATATCACGGAGTCACCTAGTGCAG”, the binding signal is 25800 fluorescence intensity (a.u.). For the sequence “CCTCCTGTTGCAGTTGCAGAGTACAGCAGCAGCATCAGCACGGAGTCACCTAGTGCAG”, the binding signal was 3560 fluorescence intensity (a.u.). As to “TGATGATTGTTAGTGGATGATGATGTGGCATATTTGCATGCGGAGTCACCTAGTGCAG”, the binding signal was 24600 fluorescence intensity (a.u.). For “CAGATGGGGAACGTGGAAATGCTGCTGGGGATGGATGGCTCGGAGTCACCTAGTGCAG”, the binding signal was 3790 fluorescence intensity (a.u.). In the case of “AATTGGTTTCAGGTCGCGTTGGCATTGAGCATGCGTAAGCCGGAGTCACCTAGTGCAG”, the binding signal is 3260 fluorescence intensity (a.u.). As to “CTTTTGGGCCCACGTGGGCCATTTTGCCTCCGTTTTGGGCCGGAGTCACCTAGTGCAG”, the binding signal is 6620 fluorescence intensity (a.u.). Take “TACCGCCTCAACGTCGGCGGCGCCTACATCCCGCCGTCCACGGAGTCACCTAGTGCAG”: the binding signal is 3710 fluorescence intensity (a.u.). “TTCCGCATCTTGAGCTGAGCAGAGCACAGCTTGTACCTGCCGGAGTCACCTAGTGCAG”: the binding signal was 3300 fluorescence intensity (a.u.).

Regarding “TATTTTAGGACGGGGAGTAATATACAGTCACGCTTAACTGCGGAGTCACCTAGTGCAG”, the binding signal was 6870 fluorescence intensity (a.u.). Consider “GACTGACACATCAGTCAAAACCACCATCGAAATCGCTGAGCGGAGTCACCTAGTGCAG”, for which the binding signal was 5300 fluorescence intensity (a.u.). Take “CACAAACCGTCCAAACCGCTGACTCCTTGTTGCCTGCTCGCGGAGTCACCTAGTGCAG”: the binding signal was 4620 fluorescence intensity (a.u.). Regarding “GGAAGTTCTGAGTCAGGCCCCATCATCTCATTGCTGTCTACGGAGTCACCTAGTGCAG”, the binding signal was 5890 fluorescence intensity (a.u.). “GTAAGCAGTGACAGAAGCCGTCGTCCCTCCACGCGTCGCGCGGAGTCACCTAGTGCAG”: the binding signal was 3780 fluorescence intensity (a.u.). In the case of “CAAAGTCGCAAGTCCGCAACGCGACTGTGCACACGAGGCCCGGAGTCACCTAGTGCAG”, the binding signal was 3200 fluorescence intensity (a.u.). On to “CTAATAGTTCCATCTACGTACCCAACCTTAATAACGGGCCCGGAGTCACCTAGTGCAG”, for which the binding signal was 36200 fluorescence intensity (a.u.). “CGTCAGATCTCTCCATTTCTCTCCACGTGGCGTCGAGAGGCGGAGTCACCTAGTGCAG”: the binding signal is 10400 fluorescence intensity (a.u.). With “GTGCGCGCCACCGCGGACACGTCCCGCCCCGCCGCGCACTCGGAGTCACCTAGTGCAG”, the binding signal was 3660 fluorescence intensity (a.u.). Take “CAAATCCGGTGGTCCGCCGCGTCGTCCTCCAGTCCCAGTCCGGAGTCACCTAGTGCAG”: the binding signal is 4130 fluorescence intensity (a.u.). As for “GATGCATATGAGCCTGTGATATAGTTACATTGACATGTGCCGGAGTCACCTAGTGCAG”, the figure is 27800 fluorescence intensity (a.u.). “CCGGGCAGTGAAGCATGCAGTGTGTGACGCGGGACTCCGGCGGAGTCACCTAGTGCAG”: the binding signal is 3370 fluorescence intensity (a.u.). The result for “CTCTCTCCTCGTCTTCCTCGCGCTGACTCTTCTCCTCCTCCGGAGTCACCTAGTGCAG” reads 3180 fluorescence intensity (a.u.). Take “GATGATGATGAGGAGGATGACCAGGATGGTGGAGACTGGGCGGAGTCACCTAGTGCAG”: the binding signal was 3250 fluorescence intensity (a.u.). As for “CTTATATAATATAAAATGGAAGAAGTATTTTAATACCTTTCGGAGTCACCTAGTGCAG”, the binding signal is 28000 fluorescence intensity (a.u.).

On to “CTGTTGCGTGCTACCAGTTCAGGATCGTCGACACGTGGAGCGGAGTCACCTAGTGCAG”, for which the binding signal is 10500 fluorescence intensity (a.u.). The result for “TAGTAGAGTATGTGTACAGAGCATGCTATTATATGCACTGCGGAGTCACCTAGTGCAG” reads 29700 fluorescence intensity (a.u.); that for “TTAAAAGATTCATCTCGCAATTTACACGTAATCTGTGTAACGGAGTCACCTAGTGCAG”, 6860 fluorescence intensity (a.u.). Consider “TCCTCTTCTGTATTTCTGGTGCGAGTTCTATCTCGCACTACGGAGTCACCTAGTGCAG”, for which the binding signal is 3560 fluorescence intensity (a.u.).

With “ACCAAGCCCTAGTCCCCGCCACGCCACCGTCCGCCGGCCGCGGAGTCACCTAGTGCAG”, the binding signal is 8250 fluorescence intensity (a.u.). For the sequence “GTGAACATCAGCATGCTCATCATCGGCCGCATCCTCCTCGCGGAGTCACCTAGTGCAG”, the binding signal is 3180 fluorescence intensity (a.u.). Take “GTGGTAGTGGTGGCTCAATGACGAGGAGGGGCGGCGAGAGCGGAGTCACCTAGTGCAG”: the binding signal was 4660 fluorescence intensity (a.u.). “CCAACAGTGCTGTTGTCGCCACGCTCTTTGTGTTGCTGCCCGGAGTCACCTAGTGCAG”: the binding signal is 3480 fluorescence intensity (a.u.). On to “GCGCGCGCGCGCGGGCATAGGCGACGCCGCGACGGTGCGGCGGAGTCACCTAGTGCAG”, for which the binding signal was 3890 fluorescence intensity (a.u.). As for “CTAATAGCAAATAAGTTTGGTTCTAGCGGTAAAATGGTCACGGAGTCACCTAGTGCAG”, the figure is 3290 fluorescence intensity (a.u.). “TCCGGTTGTTTGCCGTGGCACTTCCTTTCTCCCTATTGGCCGGAGTCACCTAGTGCAG”: the binding signal is 5380 fluorescence intensity (a.u.). As to “CGTCGGCGGGGCCGATGGAGCTGGTGGCGGCGCTGCTGCGCGGAGTCACCTAGTGCAG”, the binding signal was 23100 fluorescence intensity (a.u.). Consider “GTGTGAAAAGATGCTGGCCCAATTAATTTGCGCGCGTCATCGGAGTCACCTAGTGCAG”, for which the binding signal is 48700 fluorescence intensity (a.u.).

As for “CAAGTACCCAACCCGCGTCGTCATCGTCGTCTTCCTACTTCGGAGTCACCTAGTGCAG”, the binding signal is 5510 fluorescence intensity (a.u.).

“AGCTAGGCGACGACACCGTCACACCGTCCCCGGTTGGCCGCGGAGTCACCTAGTGCAG”: the binding signal is 4530 fluorescence intensity (a.u.). “GAGAAAGAGGGAGGGTGATGATGTGGATCACCCTAACATGCGGAGTCACCTAGTGCAG”: the binding signal was 5450 fluorescence intensity (a.u.).

Values taken from publication PMC7819943, “Rice protein-binding microarrays: a tool to detect cis-acting elements near promoter regions in rice”.
